PubChem BioAssay AID2685 (National Center for Advancing Translational Sciences (NCATS), 2010)
About 2,100 (0.66%) of roughly 320,000 compounds were called active. Inconclusive means that the source gave no clear call. Such entries were picked first, then a sample of the others. Calls come from the whole dose curve; as a rule, active = well fitted inhibition curve with a large enough effect in the signal ratio, with a control signal flat (not every such curve was filed as active); inconclusive = small, poorly fitted or top-dose-only effect, or effect the other way, or a change in a side signal; inactive = flat fitted curve, though single readings scatter; the % refers to the signal ratio. A potency beside an inconclusive call is a rough fit, not a confirmed value.

experiment: qHTS Assay for Lipid Storage Modulators in Drosophila S3 Cells; details: BODIPY lipid droplet fluorescence, 18-24 h, cells fed with added oleic acid; lipid storage change, negative = inhibition: at 46.1 µM (top of the series) unless noted
Summary of the method: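 Drosophila S3 cells loaded with oleic acid (400 uM, as added) and compounds at several concentrations; lipid droplets imaged by 488-nm laser-scanning cytometry, 500–530 nm intensity and object ratio to cell channel. Percent activity normalized to 20 uM Triacsin C.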
% is set by controls: 0 for no effect and ±100 for the full control effect; potency is the fitted concentration of half-maximal effect.

Row | Compound | lipid storage change, negative = inhibition | Potency
1 | Cn1cnnc1SCc1ccc(C#N)cc1Cl | inconclusive: 4.79% | –
2 | CCCCc1cc(=O)oc2cc(OC(C)C(=O)NCc3ccccn3)c(Cl)cc12 (stereo not drawn) | – | inconclusive: 6.51 µM [falling, single point]
3 | Cc1nc(C(C)NC(=O)c2cc(COc3ccc(C)c(C)c3)on2)c(C)s1 (stereo not drawn) | – | inconclusive: 29.1 µM [falling, single point]
4 | CC(=O)N1CCN(S(=O)(=O)c2ccc3c(c2)CCC(=O)N3)CC1 | inconclusive: 23.4% | –
5 | CC(Oc1cccc(Cl)c1)C(=O)Nc1cc(S(=O)(=O)N2CCOCC2)ccc1N1CCCC1 (stereo not drawn) | inconclusive | –
6 | Cc1c(C(=O)Nc2cccc([N+](=O)[O-])c2)csc1-c1ccccc1 | – | inconclusive: 23.1 µM [falling, single point]
7 | O=C(NNC(=S)NC1CCCCC1)c1sc2ccccc2c1Cl | – | inconclusive: 32.6 µM [falling, partial curve, poor fit]
8 | O=C(COc1ccc(S(=O)(=O)NC2CCCCC2)cc1Cl)NCC1CCCO1 (stereo not drawn) | – | inconclusive: 4.11 µM [rising, partial curve]
9 | COC(=O)CC1C(=O)NCCN1C(=O)CSc1nc2ccccc2c(=O)n1CC(C)C (stereo not drawn) | inconclusive: 24.7% | –
10 | CN(C)S(=O)(=O)N1CCN(C(=O)N2CCOCC2)CC1 | – | active: 5.8 µM
11 | O=C(Nc1ccccc1)Nc1sccc1-c1nc2ccccc2s1 | inconclusive: -9.96% | –
12 | CC(=O)NCCn1c(SCC(=O)NCCC2=CCCCC2)nc2ccccc2c1=O | inconclusive: 32.7% [at 0.0737 µM] | –
13 | CC(=O)c1ccc(C(=O)N2CCCC(C(=O)c3cc(F)ccc3F)C2)s1 (stereo not drawn) | – | inconclusive: 29.1 µM [activator, single point]
14 | COC(=O)c1cc(NC(=O)c2nn(C)c(=O)c3ccccc23)cc(C(=O)OC)c1 | inconclusive: 17.2% | –
15 | COC(=O)C1=C(C)NC(=S)N(C(C)=O)C1c1ccc(OC)c(OC)c1 (stereo not drawn) | inconclusive: 17.1% | –
16 | O=C(Nc1ccc2c(c1)C(=O)OC2)c1ccc(Cl)cc1 | – | inconclusive: 29.1 µM [activator, single point]
17 | Nc1cc(C(=O)N2CCCC2)cc(C(=O)N2CCCC2)c1 | inconclusive: 20.1% | –
18 | CCOC(=O)N1CCN(CCC(=O)Nc2cccc(Br)c2)CC1 | inconclusive: 45.4% | –
19 | O=C1CC(NS(=O)(=O)c2cc(F)ccc2F)CN1c1cccc(F)c1 (stereo not drawn) | inconclusive: 21.3% | –
20 | CN=C1S/C(=C\c2ccc(Cl)cc2)C(=O)N1C | – | inconclusive: 0.58 µM [activator, full curve]
21 | CS(=O)(=O)N(CC(=O)N/N=C/c1ccc(OCC(=O)N2CCOCC2)cc1)c1ccccc1Cl | inconclusive: -28% | –
22 | Cc1[nH]n(-c2ccccc2)c(=O)c1/C=N/NC(=O)C(C)C | inconclusive: 62.7% | –
23 | CCOc1ccc(-c2c(C(=O)N/N=C/c3cccnc3)nnn2-c2nonc2N)cc1 | – | inconclusive: 29.1 µM [activator, single point]
24 | COC(=O)c1sccc1Oc1ccc(F)cc1[N+](=O)[O-] | – | inconclusive: 16.4 µM [activator, partial curve]
25 | CN(C)C/C=C(\c1ccc(Br)cc1)c1cccnc1 | inconclusive: 16.8% | –
26 | Cc1ccc2c(c1)C(c1ccccc1)N(C(=O)c1cc3ccccc3oc1=O)CC(=O)N2 (stereo not drawn) | inconclusive: 22.2% | –

Random excerpt: 2 entries already listed, in no set order.
Row | Compound | lipid storage change, negative = inhibition | Potency
22 | Cc1[nH]n(-c2ccccc2)c(=O)c1/C=N/NC(=O)C(C)C | inconclusive: 62.7% | –
19 | O=C1CC(NS(=O)(=O)c2cc(F)ccc2F)CN1c1cccc(F)c1 (stereo not drawn) | inconclusive: 21.3% | –

Going on with the list.

Row | Compound | lipid storage change, negative = inhibition | Potency
27 | COc1cccc(CNC(=O)c2ccc(NC(=O)CC3SC(N4CCCCC4)=NC3=O)cc2)c1 (stereo not drawn) | inactive: -26.4% | –
28 | CCn1ncc(/C=C/C(=O)Nc2c(C)nn(CC)c2C)c1C | inconclusive: -30% | –
29 | COc1cc(C(=O)OC(C)CN2CCCCC2)cc(OC)c1OC (stereo not drawn) | inconclusive: 25.5% | –
30 | CC(=O)/C(=N/Nc1ccccc1[N+](=O)[O-])N1CCCc2ccccc21 | – | inconclusive: 18.4 µM [cytotoxic, partial curve]
31 | COc1cc2c(cc1OC)C(NC(=O)C(F)(F)F)CNC2=O (stereo not drawn) | inconclusive: -6.26% | –
32 | COc1ccc(OC)c(NC(=O)CCCNC(=O)c2ccc(Cl)cc2)c1 | inconclusive: -4.97% | –
33 | COc1ccc(/C=C/C(=O)OCC(=O)Nc2ccc(S(N)(=O)=O)cc2)cc1OC | inconclusive: -3.75% | –
34 | Fc1ccccc1NC(=S)NCCc1cccc(Cl)c1 | – | inconclusive: 29.1 µM [falling, single point]
35 | CCCCCC1CCC(c2ccc(/C(N)=N/O)cc2)CC1 (stereo not drawn) | inconclusive: -32.8% | –
36 | O=C(CN1C(=O)NC2(CCCCC2)C1=O)Nc1ccccc1Cl | inconclusive: -37.5% | –
37 | CCn1c(SCC(=O)Nc2nc3c(s2)CCCC3)nc2c1c(=O)n(C)c(=O)n2C | inconclusive: 41.4% | –
38 | COC(=O)c1ccccc1NS(=O)(=O)c1ccc2[nH]c(=O)[nH]c2c1 | inconclusive: 14.3% | –
39 | O=C(O)CC(Cc1ccc(Br)cc1)C(=O)O (stereo not drawn) | inactive: 26.3% | –
40 | COc1ccccc1S(=O)(=O)Cc1ccc(C(=O)N2CCCC2)o1 | – | inconclusive: 6.51 µM [activator, partial curve]
41 | COc1ccc(NC(=O)CCNS(=O)(=O)c2ccc(Cl)c([N+](=O)[O-])c2)cc1S(N)(=O)=O | inconclusive: 63.6% | –
42 | CC(Sc1nnc2n1CCCCC2)C(=O)Nc1ccc(S(N)(=O)=O)cc1 (stereo not drawn) | – | inconclusive: 29.1 µM [activator, single point]
43 | O=C(NC1CCCCCC1)c1ccc(CS(=O)Cc2ccccc2Cl)o1 (stereo not drawn) | – | inconclusive: 29.1 µM [falling, single point]
44 | Cc1cc(NC(=O)c2ccccc2-c2ccccc2)ccc1Br | inconclusive: 46% | –
45 | COc1ccc(C(C(=O)NCC2CCCO2)N(C(=O)CNC(=O)c2cccs2)c2ccc(C)cc2)cc1OC (stereo not drawn) | inconclusive: 39.2% | –
46 | COCCN1Cc2cccc(C(=O)Nc3cc(OC)ccc3OC)c2C1=O | inconclusive: 24.8% | –
47 | O=S(=O)(NC1CCCCC1N1CCN(c2ccccc2F)CC1)c1ccccc1 (stereo not drawn) | inconclusive: 75% | –
48 | O=C(Nc1nc(-c2ccccc2)c(-c2ccccc2)s1)c1ccc(S(=O)(=O)N2CCCCC2)cc1 | inconclusive: 202% | –
49 | Cc1cc(C(=O)Nc2ccccc2)c(C)o1 | inconclusive: 32.8% | –
50 | COc1ccc2cc3cc(C(=O)NCC4COc5ccccc5O4)oc3nc2c1 (stereo not drawn) | – | inconclusive: 16.4 µM [falling, partial curve]
51 | Cc1ccc(C(=O)NCC(=O)Nc2ccc(F)c(F)c2F)cc1 | inconclusive: 10.9% | –
52 | Cc1ccc(OCCC(=O)OCC(=O)NCc2ccccc2)cc1 | inconclusive: 8.27% | –

Row | Compound | lipid storage change, negative = inhibition | Potency
53 | COc1ccccc1CCNC(=O)C1(C)CC1(Cl)Cl (stereo not drawn) | – | inconclusive: 29.1 µM [activator, partial curve, poor fit]
54 | N/C(=N\N=C\c1cccs1)SC1CC(=O)N(c2ccc(Br)cc2)C1=O (stereo not drawn) | inconclusive: 16.8% | –
55 | Cc1n[nH]c(=O)nc1NC1CCCCC1 | inconclusive: 32.8% | –
56 | O=C(Nc1cccc2ccccc12)N1CCN(Cc2ccccc2)CC1 | inconclusive: 20.1% | –
57 | CC(C)(C)c1ccc(C(=O)NCCCNC(=O)c2ccco2)cc1 | inconclusive: 35.5% | –
58 | CC(=O)Nc1ccc(NC(=O)Cn2c(=O)n(-c3ccc(F)cc3)c(=O)c3oc4ccccc4c32)cc1 | inconclusive: 2.85% | –
59 | CCN1CCN(c2ncnc3c2oc2nc(C(C)C)c4c(c23)CCC4)CC1 | inconclusive: 78.4% | –
60 | CCc1ccc2[nH]c(=O)c(CN(CC3CCCO3)C(=S)NCc3ccco3)cc2c1 (stereo not drawn) | – | inconclusive: 29.1 µM [falling, single point]
61 | c1ccc(COc2ccc(Nc3ncnc4nc[nH]c34)cc2)cc1 | – | inconclusive: 1.46 µM [rising, partial curve]
62 | Cc1ccccc1NC(=O)Cc1nc(COC(=O)c2cc(Cl)ccc2O)cs1 | inconclusive: -21.1% | –
63 | CSc1nc(C)c2c(n1)N(c1ccc(C(F)(F)F)cc1)CC2 | inconclusive: -9.63% | –
64 | CCCC(C)c1nnc(NC(=O)C2CC(=O)N(c3ccc(OCC)cc3)C2)s1 (stereo not drawn) | inconclusive: -135% | –
65 | CC(NS(=O)(=O)c1ccc(Br)cc1)C(=O)NCc1ccc2c(c1)OCO2 (stereo not drawn) | inconclusive: 14.2% | –
66 | CCn1c(COc2ccc(Cl)cc2)nnc1SCC(=O)Nc1ccc2c(c1)OCCO2 | inconclusive: -98.5% | –
67 | CCC1CCc2c(sc(NC(=O)C3CC=CCC3C(=O)O)c2C#N)C1 (stereo not drawn) | inconclusive: 11.7% | –
68 | COc1ccc(CCNC(=O)Cn2cccc2C(=O)c2ccccc2C)cc1OC | – | active: 20.6 µM
69 | CCOc1ccccc1CN1CCN(S(=O)(=O)CC)CC1 | inconclusive: 5.69% | –
70 | O=C(NC1CCN(C(=S)NCc2ccco2)CC1)c1cccc(F)c1 | inconclusive: 32.1% | –
71 | COc1ccc(NC(=O)CC23CC4CC(CC(Br)(C4)C2)C3)c(OC)c1 | inconclusive: 70.1% | –
72 | Oc1ccc(COC2CCCC2)c2cccnc12 | inconclusive: -35.4% | –
73 | CCN(Cc1nc2cc(Cl)ccc2c(=O)[nH]1)C(=O)C1CC(=O)N(c2cccc3ccccc23)C1 (stereo not drawn) | – | inconclusive: 2.59 µM [activator, partial curve]
74 | Cc1ccc(CNS(=O)(=O)c2ccc(-c3cnc(C4CC4)o3)cc2)cc1 | – | inconclusive: 29.1 µM [rising, single point]
75 | O=C(CC1=NCCNC(c2ccccc2)C1)c1ccccc1O (stereo not drawn) | inconclusive: -28.6% | –
76 | CC(=O)N1CC(C)Oc2ccc(S(=O)(=O)NC(CC(=O)O)c3ccc(C)cc3C)cc21 (stereo not drawn) | inconclusive: 25.4% | –
77 | CC(C)CCn1c(O)c(N=NC(=O)Cn2ccc(C(F)(F)F)n2)c2ccccc21 | inconclusive: 29.2% | –
78 | CCCCCc1cc(=O)oc2c(C(CCN3CCCC(C)C3)c3cc(OC)c(OC)c(OC)c3)c(OC)cc(OC)c12 (stereo not drawn) | – | inconclusive: 29.1 µM [cytotoxic, single point]

Structural class: those above with a CF3 group (three)
Row | Compound | lipid storage change, negative = inhibition | Potency
31 | COc1cc2c(cc1OC)C(NC(=O)C(F)(F)F)CNC2=O (stereo not drawn) | inconclusive: -6.26% | –
63 | CSc1nc(C)c2c(n1)N(c1ccc(C(F)(F)F)cc1)CC2 | inconclusive: -9.63% | –
77 | CC(C)CCn1c(O)c(N=NC(=O)Cn2ccc(C(F)(F)F)n2)c2ccccc21 | inconclusive: 29.2% | –
